Source: patent US9645138B2, “Method to evaluate the tissue targeting of a molecule of interest” (IMABIOTECH, priority 2013, dated 2017)

System: receptor in the brain (GABA)
Assay: Receptor occupancy / adsorption by MALDI imaging of rat brain sections, Diazepam dosed and Lorazepam washing (Example 2)
Text: FIG. 7 explains the methodology of adsorption of a molecule on tissue using the example of the receptor occupancy process. In this way, it is possible to measure the occupancy efficiency of the receptor by the drug (agonist) administered to the animal compared with an antagonist molecule. In this example, all the steps of the methodology are described: the dosed tissue analysis alone, the washing step with the antagonist solution of the control tissue and the combined dosed/washing analysis of the administrated sample. No negative marker is required for this kind of experiment.
Of course, in an almost identical manner an imaging device other that MALDI can be used, such as the following: SIMS, DESI, DIOS, ICP, MALDI microscope, SNOM, SMALDI, LA-ICP, ESI (liquid extraction on tissue), MILDI, JEDI, ELDI, etc.
Wild-type rats weighing 35-40 g were used. […] Animals (dosed and control rats) were sacrificed by CO2 asphyxiation. […] Finally, brains were stored at −80° C.
Brains (control and dosed tissues) were sectioned into 10 μm thick layers (coronal section) using a Microm HM560 (Thermo Scientific, France) cooled at −20° C.
The antagonist solution was prepared from a stock solution of Lorazepam at 1 mg/ml in methanol (100%). The final concentration of the washing solution was fixed at 100 pmol/μL in methanol/water+0.1% TFA (7:3). The concentration of the antagonist is a crucial factor for receptor occupancy that improves the binding capacity of the molecule. 20 μL of the solution was spotted on the tissue section (one dosed and one control sample) and then incubated for 1 hour at 37° C. in a box inside an INCU-Line incubator (VWR, France). A dosed brain section without washing was also put in the incubator.
After incubation, tissues were washed using 2 steps to remove unbound molecules from the tissue, firstly with a solution of methanol/water+0.1% TFA (7:3) corresponding to the antagonist washing solution. Secondly, the tissue is washed using only water solution (10 mL) and then placed into a desiccator for 15 min.
A DHB matrix was used for the analysis of all brain tissue sections with or without washing with the Lorazepam solution. This matrix was prepared at a concentration of 40 mg/ml in methanol/water+0.1% TFA (1:1, v/v).
The data was generated in positive reflectron mode.
The F2 factor allows comparison of the fine localization of the agonist and the antagonist in the white matter region and gives information about their similarity or dissimilarity.

[1] = rat brain targeted area T1, positive marker Lorazepam = 100%

CN1C(=O)CN=C(c2ccccc2)c2cc(Cl)ccc21 [Diazepam]
localization on the brain section (MSI) (brain dosed with the agonist (15 mg/kg i.v.) without washing): at the level of the white matter of the brain | F1 (%) [1]: 85.1% | F2 (%) [1]: 72.5% | affinity for the receptor site of benzodiazepine regarding the positive marker (rat brain white matter, conclusion of Example 2): high affinity | Normalized mean intensity/Tissue T1 (rat brain, targeted area T1 (white matter, receptor binding site), Diazepam 15 mg/kg i.v., Lorazepam washing 100 pmol/μL): 0.692 | Normalized mean intensity/Tissue T2 (rat brain, untargeted area T2 (rest of the brain), Diazepam 15 mg/kg i.v., Lorazepam washing 100 pmol/μL): 0.117 | % Tar (targeting coefficient) (target area (Receptor) T1, rat brain): 78.8%
